Results published in the supplement of paper PMC12067093, “Discovery and optimisation of a covalent ligand for TRIM25 and its application to targeted protein ubiquitination” (Chemical Science, 2025).
The list shows a part of the results.

By UniProt entry, the sequences of proteins in these tests, tags left out. Where a name states a change or a piece, a line headed by the entry shows the natural chain unless it says otherwise.
UniProt O00584, whole entry, looked up: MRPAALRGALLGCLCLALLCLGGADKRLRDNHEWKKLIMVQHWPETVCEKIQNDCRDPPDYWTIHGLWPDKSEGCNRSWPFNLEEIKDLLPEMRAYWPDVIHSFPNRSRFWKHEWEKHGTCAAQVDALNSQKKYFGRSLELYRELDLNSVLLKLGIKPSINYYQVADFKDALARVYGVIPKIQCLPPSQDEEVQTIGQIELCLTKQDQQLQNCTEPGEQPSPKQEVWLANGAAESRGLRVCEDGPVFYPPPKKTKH
UniProt Q9Y508: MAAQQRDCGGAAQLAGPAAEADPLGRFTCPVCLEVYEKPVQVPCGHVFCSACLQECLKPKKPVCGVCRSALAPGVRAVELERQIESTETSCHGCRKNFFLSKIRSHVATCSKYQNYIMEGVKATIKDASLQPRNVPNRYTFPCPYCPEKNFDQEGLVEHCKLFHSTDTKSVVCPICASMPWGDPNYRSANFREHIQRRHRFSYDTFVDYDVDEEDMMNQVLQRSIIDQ
UniProt P51606: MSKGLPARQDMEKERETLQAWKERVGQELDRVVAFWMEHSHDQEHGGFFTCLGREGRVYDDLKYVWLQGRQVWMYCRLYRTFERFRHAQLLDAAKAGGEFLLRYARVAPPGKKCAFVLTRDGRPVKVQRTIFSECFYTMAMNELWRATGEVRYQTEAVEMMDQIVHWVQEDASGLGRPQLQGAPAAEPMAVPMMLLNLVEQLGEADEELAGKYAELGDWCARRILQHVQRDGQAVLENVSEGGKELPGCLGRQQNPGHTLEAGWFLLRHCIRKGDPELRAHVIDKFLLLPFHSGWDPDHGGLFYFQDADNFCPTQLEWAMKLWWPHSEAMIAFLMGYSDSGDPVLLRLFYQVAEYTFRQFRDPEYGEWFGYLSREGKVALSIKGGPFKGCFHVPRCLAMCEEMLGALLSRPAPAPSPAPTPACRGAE
UniProt Q8IXI1, whole entry, looked up: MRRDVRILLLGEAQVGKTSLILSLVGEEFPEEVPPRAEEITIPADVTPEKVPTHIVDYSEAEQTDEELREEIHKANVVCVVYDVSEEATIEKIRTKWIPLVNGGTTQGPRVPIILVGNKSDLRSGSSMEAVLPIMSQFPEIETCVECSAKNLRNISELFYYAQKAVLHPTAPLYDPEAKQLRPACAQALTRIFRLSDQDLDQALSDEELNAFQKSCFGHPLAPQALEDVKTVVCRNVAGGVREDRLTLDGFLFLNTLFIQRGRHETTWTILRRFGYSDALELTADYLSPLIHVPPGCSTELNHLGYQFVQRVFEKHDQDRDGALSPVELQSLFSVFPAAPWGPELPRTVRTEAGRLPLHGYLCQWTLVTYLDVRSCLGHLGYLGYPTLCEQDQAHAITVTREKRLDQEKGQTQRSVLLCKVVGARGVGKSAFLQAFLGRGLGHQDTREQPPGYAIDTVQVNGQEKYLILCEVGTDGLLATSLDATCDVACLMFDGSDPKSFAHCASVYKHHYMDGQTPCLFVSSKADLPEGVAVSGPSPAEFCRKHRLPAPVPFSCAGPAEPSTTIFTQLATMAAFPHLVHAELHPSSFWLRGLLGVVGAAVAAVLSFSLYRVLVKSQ
UniProt P40938, whole entry, looked up: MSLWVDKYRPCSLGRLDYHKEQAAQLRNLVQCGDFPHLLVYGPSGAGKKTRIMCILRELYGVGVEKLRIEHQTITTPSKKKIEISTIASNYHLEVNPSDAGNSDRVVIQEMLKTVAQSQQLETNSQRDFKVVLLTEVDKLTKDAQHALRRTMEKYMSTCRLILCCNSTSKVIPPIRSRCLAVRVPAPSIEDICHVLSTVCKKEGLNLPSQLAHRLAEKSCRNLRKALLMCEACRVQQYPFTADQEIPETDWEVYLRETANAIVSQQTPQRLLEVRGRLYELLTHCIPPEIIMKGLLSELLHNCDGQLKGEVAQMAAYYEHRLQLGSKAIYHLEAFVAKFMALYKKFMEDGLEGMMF
UniProt Q8IXI2: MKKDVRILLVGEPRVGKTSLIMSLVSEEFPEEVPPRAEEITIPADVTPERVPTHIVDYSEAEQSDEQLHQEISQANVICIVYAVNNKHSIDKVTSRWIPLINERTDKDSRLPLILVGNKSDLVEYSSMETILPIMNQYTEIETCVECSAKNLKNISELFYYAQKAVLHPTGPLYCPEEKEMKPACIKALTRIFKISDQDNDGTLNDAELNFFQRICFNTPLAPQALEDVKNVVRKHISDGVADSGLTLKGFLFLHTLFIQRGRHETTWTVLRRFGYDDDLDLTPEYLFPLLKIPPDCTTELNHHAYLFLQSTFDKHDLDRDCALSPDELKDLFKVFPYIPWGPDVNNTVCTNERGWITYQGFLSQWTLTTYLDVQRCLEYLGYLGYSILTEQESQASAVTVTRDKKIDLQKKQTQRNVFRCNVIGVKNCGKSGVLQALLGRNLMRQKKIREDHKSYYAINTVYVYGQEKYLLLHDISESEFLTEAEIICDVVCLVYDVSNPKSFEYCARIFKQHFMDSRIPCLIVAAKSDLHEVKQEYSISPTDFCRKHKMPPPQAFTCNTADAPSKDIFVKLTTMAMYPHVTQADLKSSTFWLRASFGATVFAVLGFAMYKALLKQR
UniProt P40937, whole entry, looked up: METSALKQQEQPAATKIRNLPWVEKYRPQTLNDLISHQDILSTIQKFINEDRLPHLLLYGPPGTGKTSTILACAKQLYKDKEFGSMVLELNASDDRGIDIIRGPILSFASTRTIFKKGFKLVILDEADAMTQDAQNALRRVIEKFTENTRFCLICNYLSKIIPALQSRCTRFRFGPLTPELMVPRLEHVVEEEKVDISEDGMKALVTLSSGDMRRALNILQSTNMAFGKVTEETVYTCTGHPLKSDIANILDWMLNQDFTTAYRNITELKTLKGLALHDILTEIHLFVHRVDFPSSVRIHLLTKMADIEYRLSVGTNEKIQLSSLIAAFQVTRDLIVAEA
UniProt O94761: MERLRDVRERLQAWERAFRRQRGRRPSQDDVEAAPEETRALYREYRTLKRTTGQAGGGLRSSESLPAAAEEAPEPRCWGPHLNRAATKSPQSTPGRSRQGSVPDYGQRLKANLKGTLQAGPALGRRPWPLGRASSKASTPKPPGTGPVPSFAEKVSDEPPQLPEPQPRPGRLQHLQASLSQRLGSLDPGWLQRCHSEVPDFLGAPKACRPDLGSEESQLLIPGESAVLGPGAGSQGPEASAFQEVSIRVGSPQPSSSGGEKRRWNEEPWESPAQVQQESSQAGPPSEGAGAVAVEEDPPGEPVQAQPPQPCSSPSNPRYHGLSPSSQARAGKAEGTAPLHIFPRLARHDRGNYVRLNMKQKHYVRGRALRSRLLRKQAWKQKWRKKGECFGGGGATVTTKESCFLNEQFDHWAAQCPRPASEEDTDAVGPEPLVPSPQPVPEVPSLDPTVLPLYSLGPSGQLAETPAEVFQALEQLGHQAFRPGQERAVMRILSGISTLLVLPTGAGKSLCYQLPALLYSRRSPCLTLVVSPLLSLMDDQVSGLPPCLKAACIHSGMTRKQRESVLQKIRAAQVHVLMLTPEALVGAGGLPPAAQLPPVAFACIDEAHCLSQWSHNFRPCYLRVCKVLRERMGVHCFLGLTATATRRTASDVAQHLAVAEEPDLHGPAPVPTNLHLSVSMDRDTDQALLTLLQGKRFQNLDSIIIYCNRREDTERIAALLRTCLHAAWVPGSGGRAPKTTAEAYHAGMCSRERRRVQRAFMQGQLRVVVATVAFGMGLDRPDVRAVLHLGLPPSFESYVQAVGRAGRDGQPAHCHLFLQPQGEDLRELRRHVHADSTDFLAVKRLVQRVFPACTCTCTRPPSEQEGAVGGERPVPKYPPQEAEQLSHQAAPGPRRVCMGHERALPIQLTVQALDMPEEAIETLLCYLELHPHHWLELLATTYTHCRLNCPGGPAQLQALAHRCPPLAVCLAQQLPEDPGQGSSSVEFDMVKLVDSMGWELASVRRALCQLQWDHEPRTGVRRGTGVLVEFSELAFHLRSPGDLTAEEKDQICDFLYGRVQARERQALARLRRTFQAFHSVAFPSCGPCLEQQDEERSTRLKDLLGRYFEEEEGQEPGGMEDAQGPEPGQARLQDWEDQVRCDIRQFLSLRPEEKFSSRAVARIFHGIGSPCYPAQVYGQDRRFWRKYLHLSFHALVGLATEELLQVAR
UniProt Q13129: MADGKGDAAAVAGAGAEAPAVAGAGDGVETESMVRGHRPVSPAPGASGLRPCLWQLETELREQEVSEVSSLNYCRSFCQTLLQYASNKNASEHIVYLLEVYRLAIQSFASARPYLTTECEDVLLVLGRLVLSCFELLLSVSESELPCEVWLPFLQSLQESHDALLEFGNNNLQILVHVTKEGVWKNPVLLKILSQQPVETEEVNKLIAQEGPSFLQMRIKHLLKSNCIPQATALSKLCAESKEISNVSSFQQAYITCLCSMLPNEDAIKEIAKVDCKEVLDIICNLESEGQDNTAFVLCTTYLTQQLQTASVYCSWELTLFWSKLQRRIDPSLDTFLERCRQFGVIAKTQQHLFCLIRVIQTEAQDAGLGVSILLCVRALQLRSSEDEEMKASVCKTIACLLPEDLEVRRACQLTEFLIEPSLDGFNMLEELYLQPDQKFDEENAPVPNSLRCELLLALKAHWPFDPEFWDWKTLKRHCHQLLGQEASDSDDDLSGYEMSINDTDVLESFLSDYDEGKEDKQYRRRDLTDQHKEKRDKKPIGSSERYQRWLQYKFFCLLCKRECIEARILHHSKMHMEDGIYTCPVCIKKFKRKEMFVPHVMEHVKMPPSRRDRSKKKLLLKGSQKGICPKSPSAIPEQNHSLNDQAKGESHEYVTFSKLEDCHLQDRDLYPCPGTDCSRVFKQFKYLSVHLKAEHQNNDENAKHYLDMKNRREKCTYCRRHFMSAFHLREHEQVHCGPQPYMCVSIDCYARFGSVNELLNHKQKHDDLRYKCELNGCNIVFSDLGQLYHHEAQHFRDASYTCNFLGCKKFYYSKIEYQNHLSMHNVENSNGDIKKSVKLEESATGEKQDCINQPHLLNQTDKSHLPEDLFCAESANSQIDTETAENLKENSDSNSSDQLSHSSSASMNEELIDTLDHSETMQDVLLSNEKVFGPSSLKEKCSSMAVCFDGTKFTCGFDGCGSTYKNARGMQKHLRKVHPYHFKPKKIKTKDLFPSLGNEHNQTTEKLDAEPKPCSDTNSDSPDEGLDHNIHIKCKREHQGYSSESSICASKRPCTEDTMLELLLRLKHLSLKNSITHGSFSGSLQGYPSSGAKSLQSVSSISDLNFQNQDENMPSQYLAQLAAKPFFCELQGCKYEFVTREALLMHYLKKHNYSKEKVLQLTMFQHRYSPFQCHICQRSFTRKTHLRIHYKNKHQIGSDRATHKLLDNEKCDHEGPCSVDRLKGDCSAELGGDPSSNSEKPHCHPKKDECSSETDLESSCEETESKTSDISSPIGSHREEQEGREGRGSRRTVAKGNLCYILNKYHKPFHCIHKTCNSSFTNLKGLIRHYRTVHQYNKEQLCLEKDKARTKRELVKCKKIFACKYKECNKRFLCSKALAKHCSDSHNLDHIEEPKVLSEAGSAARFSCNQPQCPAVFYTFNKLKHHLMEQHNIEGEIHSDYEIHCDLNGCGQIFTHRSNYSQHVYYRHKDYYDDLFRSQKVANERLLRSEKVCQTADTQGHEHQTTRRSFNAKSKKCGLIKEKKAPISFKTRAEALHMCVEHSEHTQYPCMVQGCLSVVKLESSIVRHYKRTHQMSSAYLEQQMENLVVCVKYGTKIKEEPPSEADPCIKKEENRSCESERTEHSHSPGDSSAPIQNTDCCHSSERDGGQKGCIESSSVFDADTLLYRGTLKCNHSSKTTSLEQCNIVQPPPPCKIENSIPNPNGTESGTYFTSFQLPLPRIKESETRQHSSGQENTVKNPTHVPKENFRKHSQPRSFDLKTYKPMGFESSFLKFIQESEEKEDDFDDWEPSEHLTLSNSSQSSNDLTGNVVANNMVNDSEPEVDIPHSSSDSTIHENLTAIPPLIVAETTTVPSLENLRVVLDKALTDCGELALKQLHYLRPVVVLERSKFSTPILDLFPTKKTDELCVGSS
UniProt Q9H871: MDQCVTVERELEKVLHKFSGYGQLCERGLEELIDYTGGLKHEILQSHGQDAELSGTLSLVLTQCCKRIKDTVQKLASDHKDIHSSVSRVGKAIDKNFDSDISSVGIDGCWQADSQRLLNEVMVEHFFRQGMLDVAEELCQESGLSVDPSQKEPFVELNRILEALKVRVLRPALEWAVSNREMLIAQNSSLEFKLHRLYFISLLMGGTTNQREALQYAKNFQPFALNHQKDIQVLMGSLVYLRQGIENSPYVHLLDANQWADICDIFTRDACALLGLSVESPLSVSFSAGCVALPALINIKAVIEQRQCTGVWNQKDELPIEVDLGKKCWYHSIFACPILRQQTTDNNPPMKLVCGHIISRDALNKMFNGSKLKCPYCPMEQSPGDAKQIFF
UniProt P08134, whole entry: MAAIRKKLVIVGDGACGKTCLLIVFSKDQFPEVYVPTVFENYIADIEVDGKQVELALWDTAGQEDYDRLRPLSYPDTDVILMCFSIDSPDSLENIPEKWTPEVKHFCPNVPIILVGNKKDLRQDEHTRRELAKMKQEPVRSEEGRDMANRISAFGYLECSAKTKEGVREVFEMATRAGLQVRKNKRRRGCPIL

Compound: CC1Cc2ccccc2N1C(=O)C1CCCN(C1)C(=O)CCl (mixture of isomers) [TRIM25 ligand 11 (diastereomer mixture)]
Test: probe-labelled cysteine peptide fold change vs DMSO (competition) (log2 fold change); higher = less target engagement (more negative = stronger competition)
Settings: THP-1, incubation time: 4 h
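Further: competitive chemoproteomic profiling in live THP-1 cells with an iodoacetamide desthiobiotin (IA-DTB) probe, comparing probe-labelled peptide intensities in compound-treated cells against DMSO-treated controls.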

Target	probe-labelled cysteine peptide fold change (10 µM)	probe-labelled cysteine peptide fold change (50 µM)
RNASET2_O00584_48_LIMVQHWPETVCEK (UniProt O00584)	-0.173	-0.327
RNF114_Q9Y508_56_PVQVPCGHVFCSACLQECLKPK (UniProt Q9Y508)	-0.12	-0.0834
RENBP_P51606_400_CLAMCEEMLGALLSR (UniProt P51606)	0.209	0.34
RHOT2_Q8IXI1_389_SCLGHLGYLGYPTLCEQDQAHAITVTR (UniProt Q8IXI1)	0.078	-0.0993
RELCH_Q9P260_401_NEHFAIPAVCDSVQPPLDQLPHK (UniProt Q9P260)	0.0128	-0.227
RHOT2_Q8IXI1_504_SFAHCASVYK (UniProt Q8IXI1)	0.00523	-0.0637
RFC3_P40938_193+200_VPAPSIEDICHVLSTVCK (UniProt P40938)	0.149	0.0296
RGN_Q15493_262_NYSEMYVTCAR (UniProt Q15493)	0.477	0.395
RNASET2_O00584_241_VCEDGPVFYPPPK (UniProt O00584)	-0.151	-0.195
RHOT1_Q8IXI2_522_IPCLIVAAK (UniProt Q8IXI2)	0.112	0.189
RNF123_Q5XPI4_1277_ACINQHLMNNK (UniProt Q5XPI4)	-0.00143	-0.121
REPS1_Q96D71_56_AAQLPNDVVLQIMELCGATR (UniProt Q96D71)	0.0646	0.361
RDH11_Q8TC12_133_HLHVLINNAGVMMCPYSK (UniProt Q8TC12)	-0.183	-0.173
RFC5_P40937_238_VTEETVYTCTGHPLK (UniProt P40937)	0.144	0.0383
RICTOR_Q6R327_893+906_TGCHLLEVQNIITELCR (UniProt Q6R327)	-0.0205	-0.296
RFC2_P35250_171_FALACNASDK (UniProt P35250)	0.0743	0.151
RECQL4_O94761_389_KKGECFGGGGATVTTK (UniProt O94761)	0.0198	-0.0239
RNF114_Q9Y508_32_FTCPVCLEVYEK (UniProt Q9Y508)	-0.000616	-0.075
RECQL4_O94761_897_RVCMGHER (UniProt O94761)	-0.133	-0.156
RENBP_P51606_76_QVWMYCR (UniProt P51606)	0.0147	0.192
RLF_Q13129_663_LEDCHLQDRDLYPCPGTDCSR (UniProt Q13129)	0.218	0.0103
RETSAT_Q6NUM9_370_CLPGVK (UniProt Q6NUM9)	-0.0713	0.0318

Target	probe-labelled cysteine peptide fold change (10 µM)	probe-labelled cysteine peptide fold change (50 µM)
RLF_Q13129_1218_CDHEGPCSVDR (UniProt Q13129)	0.0777	0.136
RGS14_O43566_183_ECLLAEAEGR (UniProt O43566)	0.122	0.152
RLF_Q13129_453_CELLLALK (UniProt Q13129)	0.116	0.0193
RLF_Q13129_1055_RPCTEDTMLELLLR (UniProt Q13129)	-0.00543	-0.22
RECQL_P46063_414_DDMKADCILYYGFGDIFR (UniProt P46063)	-0.336	-0.367
RMND5A_Q9H871_4_MDQCVTVER (UniProt Q9H871)	0.105	-0.00637
RFT1_Q96AA3_448_ITQSLCFIHR (UniProt Q96AA3)	0.0645	0.201
RNASET2_O00584_55_IQNDCRDPPDYWTIHGLWPDK (UniProt O00584)	-0.126	-0.235
RLF_Q13129_961_FTCGFDGCGSTYK (UniProt Q13129)	-0.159	-0.314
RLF_Q13129_663_LEDCHLQDR (UniProt Q13129)	0.175	0.0205
RENBP_P51606_135_TIFSECFYTMAMNELWR (UniProt P51606)	0.397	0.52
RNF114_Q9Y508_110_SHVATCSK (UniProt Q9Y508)	0.0298	-0.0162
RFC3_P40938_193_VPAPSIEDICHVLSTVCK (UniProt P40938)	0.102	0.216
RHOT1_Q8IXI2_421_CNVIGVK (UniProt Q8IXI2)	-0.112	0.209
RMND5A_Q9H871_354_LVCGHIISR (UniProt Q9H871)	0.0141	-0.0791
RFWD3_Q6PCD5_315_CISTWLK (UniProt Q6PCD5)	-0.0654	-0.0462
RENBP_P51606_220_YAELGDWCAR (UniProt P51606)	0.133	0.171
RIC1_Q4ADV7_818_EQLEVLFPFCVVER (UniProt Q4ADV7)	0.115	0.0689
RLF_Q13129_851_QDCINQPHLLNQTDK (UniProt Q13129)	-0.0126	-0.235
RIOX1_Q9H6W3_584_CLEIYPQQADAMELLLGSYPEFVR (UniProt Q9H6W3)	0.0963	0.198
RHOC_P08134_159_ISAFGYLECSAK (UniProt P08134)	-0.0532	0.00186
RIF1_Q5UIP0_1692_DSFDNCSLGESSK (UniProt Q5UIP0)	0.018	-0.0276
